Structures can show the parent of a compound that is named as a salt. This is one part of the list. Repeats in this data set agree poorly, so a single value says little.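 Human kidney-derived cells stably carry a construct in which eight TEAD-binding elements drive luciferase, measured by luminescence in a drug-repurposing library screen. A hit is any compound whose signal exceeds the plate mean by more than five robust Z scores.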

This experiment concerns HEK293A TEAD-LUC reporter. The experiment in a line: TEAD-luciferase reporter activity (YAP activation), robust Z score vs plate; higher = stronger YAP/TEAD activation. The settings on record: 24 h. For orientation: Reporter assays use an easily measured gene product as a stand-in for the process of interest.

In the case of `O=C(c1ccc2c(c1)OCO2)N1CCC(N2CCCOC2=O)CC1`, the TEAD-luciferase reporter activity is, setting by setting: (compound concentration: 200 nM) inactive: -1.62; (compound concentration: 10 uM) inactive: 2.73.
The like results for `O=C1NCc2ccccc2CC12CCCN2Cc1c(F)cccc1F` (stereo not drawn) were, in that order, inactive: -0.186 and inactive: 1.3.
On to `O=C([O-])C(=O)[O-]`, for which the TEAD-luciferase reporter activity (compound concentration: 200 nM) is inactive: 0.81, the TEAD-luciferase reporter activity (compound concentration: 2 uM) is inactive: -0.707 and the TEAD-luciferase reporter activity (compound concentration: 10 uM) is inactive: -0.11.
For `CC(C)=CCOc1ccc(/C=C/C(=O)c2ccc(OCC=C(C)C)cc2OCC(=O)O)cc1` [sofalcone], in that order: inactive: -0.155, inactive: -0.862 and inactive: 4.22.
Regarding `CCOC(=O)Cc1cc(Cl)c(Oc2ccc(C(=O)NC(C)(C)C)cc2NS(=O)(=O)c2ccc(OC)cc2)cc1F`, the TEAD-luciferase reporter activity by setting is: (compound concentration: 200 nM) inactive: -0.968; (compound concentration: 2 uM) inactive: -0.0863; (compound concentration: 10 uM) inactive: -0.033.
For `COc1ccc2c(O[C@@H]3C[C@H]4C(=O)N[C@]5(C(=O)O)C[C@H]5/C=C\CCCCC[C@H](NC(=O)OC5CCCC5)C(=O)N4C3)cc(-c3csc(NC(C)C)n3)nc2c1`, in that order: inactive: -1.13, inactive: -1.18 and inactive: 2.44.
The like results for `COC(=O)C1=C(C)NC(COC(N)=O)=C(C(=O)OC(C)C)C1c1cccc(Cl)c1Cl` (stereo not drawn) [Lemildipine] were, in that order, inactive: 0.383, inactive: -1.41 and inactive: 0.0185.
For `CC1(C)OC(=O)Nc2ccc(Br)cc21`, in that order: inactive: -0.307, inactive: -2.27 and inactive: -1.89.
As for `Cc1cc(C(C)(C)CC(C)(C)C)ccc1OCCOCC[N+](C)(C)Cc1ccccc1` [Methylbenzethonium chloride], the TEAD-luciferase reporter activity is inactive: -0.181 (compound concentration: 200 nM) and inactive: -0.265 (compound concentration: 10 uM).
In the case of `Cc1cc(C(C)(C)CC(C)(C)C)ccc1OCCOCC[N+](C)(C)Cc1ccccc1`, the TEAD-luciferase reporter activity (compound concentration: 2 uM) was inactive: -1.
Regarding `O=C(/C=C/c1c(C(=O)O)[nH]c2cc(Cl)cc(Cl)c12)Nc1ccccc1` [Gavestinel sodium], the TEAD-luciferase reporter activity reads like this: (compound concentration: 200 nM) inactive: -2.16; (compound concentration: 2 uM) inactive: -0.514; (compound concentration: 10 uM) inactive: -0.451.
Take `C[C@]12CCC(=O)C=C1CC[C@@H]1[C@@H]2C(=O)C[C@@]2(C)[C@H]1CC[C@]2(O)C(=O)CO`: the TEAD-luciferase reporter activity is inactive: -0.253 (compound concentration: 200 nM) and inactive: 0.965 (compound concentration: 10 uM).
Regarding `C[C@]12CCC(=O)C=C1CC[C@@H]1[C@@H]2C(=O)C[C@@]2(C)[C@H]1CC[C@]2(O)C(=O)CO` [Cortisone], the TEAD-luciferase reporter activity (compound concentration: 2 uM) was inactive: 0.277.
For the compound `O=C1CCC(c2ccccc2)(C2CCN(Cc3ccccc3)CC2)C(=O)N1` (stereo not drawn) [Dexetimide], the TEAD-luciferase reporter activity by setting is: (compound concentration: 200 nM) inactive: -1; (compound concentration: 10 uM) inactive: 0.118.
In the case of `O=C1CCC(c2ccccc2)(C2CCN(Cc3ccccc3)CC2)C(=O)N1` (stereo not drawn), where the note is “compound concentration: 2 uM”, the TEAD-luciferase reporter activity was inactive: -0.986.
In the case of `COc1ccc(N2C[C@H](CN3CCC(O)(c4ccc5c(c4)OCO5)CC3)OC2=O)cc1` [Panamesine hydrochloride], the TEAD-luciferase reporter activity (compound concentration: 200 nM) is inactive: -1.1, the TEAD-luciferase reporter activity (compound concentration: 2 uM) is inactive: 0.781 and the TEAD-luciferase reporter activity (compound concentration: 10 uM) was inactive: 0.529.
For `N=C(N)Nc1ccc(C(=O)Oc2ccc(SCCN3C(=O)CCC3=O)cc2)cc1` [Patamostat mesylate], in that order: inactive: -2.29, inactive: -0.215 and inactive: 2.13.
The like results for `Cc1cc(SCCN2CCCCC2)nc2ccccc12` were, in that order, inactive: 0.822, inactive: -0.16 and inactive: 1.93.
For `CCC(C)CCCCC(=O)NC(CCN)C(=O)NC(C(=O)NC(CCN)C(=O)NC1CCNC(=O)C(C(C)O)NC(=O)C(CCN)NC(=O)C(CCN)NC(=O)C(CC(C)C)NC(=O)C(Cc2ccccc2)NC(=O)C(CCN)NC1=O)C(C)O` (stereo not drawn), in that order: inactive: -0.59, inactive: -1.57 and inactive: 2.31.
Turning to `Cc1cc[nH]n1`, the TEAD-luciferase reporter activity reads like this: (compound concentration: 200 nM) inactive: -0.0627; (compound concentration: 2 uM) inactive: -1.42; (compound concentration: 10 uM) inactive: -0.931.
As for `CCNC(=O)Nc1ncnc2c1ncn2[C@@H]1O[C@H](COP(=O)(O)O)[C@H]2O[C@H](/C=C/c3ccccc3)O[C@H]21` [Regrelor disodium], the TEAD-luciferase reporter activity is, setting by setting: (compound concentration: 200 nM) inactive: 4.28; (compound concentration: 2 uM) inactive: -0.396; (compound concentration: 10 uM) inactive: 0.738.
The like results for `CC(Oc1ccc(Cl)cc1)c1ccnc2ncnn12` (stereo not drawn) were, in that order, inactive: -0.0683, inactive: -0.185 and inactive: -1.07.
Turning to `COc1ccc(F)c(F)c1C(=O)c1cnc(NC2CCN(S(C)(=O)=O)CC2)nc1N`, the TEAD-luciferase reporter activity (compound concentration: 200 nM) is inactive: 0.51, the TEAD-luciferase reporter activity (compound concentration: 2 uM) was inactive: -2.52 and the TEAD-luciferase reporter activity (compound concentration: 10 uM) is inactive: -1.72.
In the case of `CC[C@H]1OC(=O)C[C@@H](O)[C@H](C)[C@@H](O[C@@H]2O[C@H](C)[C@@H](O)[C@H](N(C)C)[C@H]2O)[C@@H](CCN2C[C@H](C)C[C@H](C)C2)C[C@@H](C)C(=O)/C=C/C(C)=C/[C@@H]1CO[C@@H]1O[C@H](C)[C@@H](O)[C@@H](OC)[C@H]1OC` [Tilmicosin], the TEAD-luciferase reporter activity by setting is: (compound concentration: 200 nM) inactive: 0.683; (compound concentration: 2 uM) inactive: 0.809; (compound concentration: 10 uM) inactive: -0.285.
The like results for `Cn1c(=O)c2c(ncn2CCCNCC(O)c2cc(O)cc(O)c2)n(C)c1=O` (stereo not drawn) [reproterol] were, in that order, inactive: -1.76, inactive: -0.758 and inactive: 2.4.
For `Cc1csc(NC(=O)C(C(=O)OC(C)C)=C2SCS2)n1` [mivotilate], in that order: inactive: 0.664, inactive: 2.02 and inactive: 0.281.
For the compound `Cc1csc(NC(=O)C(C(=O)OC(C)C)=C2SCS2)n1` [Mivotilate], the TEAD-luciferase reporter activity (compound concentration: 2 uM) is inactive: -0.389.

Source of the values: the supplement of paper PMC10735217.
